Laboratory results: PubChem BioAssay AID186 (DTP/NCI, 2004)
Shown are survivors of the treated group in tumour-free mice. Survivors were counted at the toxicity check, usually on the fifth day, unless a day is given; later deaths do not show. Schedule codes are those of the source, read here as Q, the interval in days (D) or hours (H), X, the number of doses. Some entries were tested several times; their values stand side by side, smallest first. Starred links: 1 amine or outer side, 2 acyl side, 3 side chain; linkers in the order of their positions; H or OH if unused. Positions of bridges follow the written chain, without caps; N, C: chain ends. Non-standard residues stand in square brackets, D forms with d. Residues, ends and D or L forms follow the SMILES beside them. Chains are numbered I, II in the order given. Actinocin(9to1) = Cc1c2oc3c(C)ccc(C(=O)[*:1])c3nc-2c(C(=O)[*:2])c(N)c1=O; aThr = C[C@H](O)[C@H](N)C(=O)O; NMeV = CN[C@H](C(=O)O)C(C)C; Sar = CNCC(=O)O

Tested on: B6D2F1 mice, nontumored toxicity test, survival
Test: NCI In Vivo Anticancer Drug Screen. Data for tumor model Nontumored Animals (Toxicity Test) in B6D2F1 (BDF1) mice

Cc1c2oc3c(C)ccc(C(=O)N[C@@H]4C(=O)N[C@H](C(C)C)C(=O)N5CCC[C@H]5C(=O)N(C)CC(=O)N(C)[C@@H](C(C)C)C(=O)O[C@H]4C)c3nc-2c(C(=O)N[C@@H]2C(=O)N[C@H](C(C)C)C(=O)N3CCC[C@H]3C(=O)N(C)CC(=O)N(C)[C@@H](C(C)C)C(=O)O[C@H]2C)c(N)c1=O (I: [aThr][dV]P[Sar][NMeV] / II: [aThr][dV]P[Sar][NMeV]; ester I:1-I:C, II:1-II:C; linker I:N-II:N via Actinocin(9to1))
survivor count (dose: 0.01 mg/kg/injection, schedule: Q01DX009 (ip), vehicle: saline): 5 of 5 | survivor count (dose: 0.02 mg/kg/injection, schedule: Q01DX009 (ip), vehicle: saline): 5 of 5 | survivor count (dose: 0.03 mg/kg/injection, schedule: Q01DX009 (ip), vehicle: saline): 5 of 5 | survivor count (dose: 0.03 mg/kg/injection, schedule: Q04DX003 (ip), vehicle: water): 8 of 8 | survivor count (dose: 0.05 mg/kg/injection, schedule: Q01DX009 (ip), vehicle: saline): 5 of 5 | survivor count (dose: 0.05 mg/kg/injection, schedule: Q04DX003 (ip), vehicle: saline): 4 of 4 | survivor count (dose: 0.05 mg/kg/injection, schedule: Q04DX003 (ip), vehicle: water): 4 of 4 | survivor count (dose: 0.06 mg/kg/injection, schedule: Q01DX001 (ip), vehicle: water): 8 of 8 | survivor count (dose: 0.06 mg/kg/injection, schedule: Q04DX003 (ip), vehicle: water): 8 of 8 | survivor count (dose: 0.06 mg/kg/injection, schedule: Q08DX002 (ip), vehicle: water): 8 of 8 | survivor count (dose: 0.1 mg/kg/injection, schedule: Q04DX003 (ip), vehicle: saline): 4 of 4 | survivor count (dose: 0.1 mg/kg/injection, schedule: Q04DX003 (ip), vehicle: water): 4 of 4 | survivor count (dose: 0.12 mg/kg/injection, schedule: Q01DX001 (ip), vehicle: water): 8 of 8 | survivor count (dose: 0.12 mg/kg/injection, schedule: Q04DX003 (ip), vehicle: water): 8 of 8 | survivor count (dose: 0.12 mg/kg/injection, schedule: Q08DX002 (ip), vehicle: water): 8 of 8 | survivor count (dose: 0.13 mg/kg/injection, schedule: Q01DX001 (ip), vehicle: saline): 4 of 4 | survivor count (dose: 0.2 mg/kg/injection, schedule: Q04DX003 (ip), vehicle: saline): 4 of 4 | survivor count (dose: 0.2 mg/kg/injection, schedule: Q04DX003 (ip), vehicle: water): 4 of 4 | survivor count (dose: 0.25 mg/kg/injection, schedule: Q01DX001 (ip), vehicle: saline): 4 of 4 | survivor count (dose: 0.25 mg/kg/injection, schedule: Q01DX001 (ip), vehicle: water): 8 of 8 | survivor count (dose: 0.25 mg/kg/injection, schedule: Q04DX003 (ip), vehicle: water): 8 of 8 | survivor count (dose: 0.25 mg/kg/injection, schedule: Q08DX002 (ip), vehicle: water): 8 of 8 | survivor count (dose: 0.33 mg/kg/injection, schedule: Q01DX001 (ip), vehicle: saline): 10 of 10 | survivor count (dose: 0.4 mg/kg/injection, schedule: Q04DX003 (ip), vehicle: saline): 4 of 4 | survivor count (dose: 0.4 mg/kg/injection, schedule: Q04DX003 (ip), vehicle: water): 4 of 4 | survivor count (dose: 0.5 mg/kg/injection, schedule: Q01DX001 (ip), vehicle: saline): 10 of 10 and 4 of 4 | survivor count (dose: 0.5 mg/kg/injection, schedule: Q01DX001 (ip), vehicle: water): 8 of 8 | survivor count (dose: 0.5 mg/kg/injection, schedule: Q04DX003 (ip), vehicle: water): 8 of 8 | survivor count (dose: 0.5 mg/kg/injection, schedule: Q08DX002 (ip), vehicle: water): 8 of 8 | survivor count (dose: 0.75 mg/kg/injection, schedule: Q01DX001 (ip), vehicle: saline): 10 of 10 | survivor count (dose: 1.0 mg/kg/injection, schedule: Q01DX001 (ip), vehicle: saline): 2 of 3 | survivor count (dose: 1.0 mg/kg/injection, schedule: Q01DX001 (ip), vehicle: water): 1 of 8 | survivor count (dose: 1.0 mg/kg/injection, schedule: Q04DX003 (ip), vehicle: water): 2 of 8 | survivor count (dose: 1.0 mg/kg/injection, schedule: Q08DX002 (ip), vehicle: water): 0 of 8 | survivor count (dose: 62.0 mg/kg/injection, schedule: Q03HX008 (ip), vehicle: water): 7 of 8 | survivor count (dose: 1.0 micrograms/kg/injection, schedule: Q06HX024 (ip), vehicle: saline): 8 of 8 | survivor count (dose: 2.0 micrograms/kg/injection, schedule: Q06HX024 (ip), vehicle: saline): 8 of 8 | survivor count (dose: 4.0 micrograms/kg/injection, schedule: Q01DX009 (ip), vehicle: clinical formulation): 8 of 8 | survivor count (dose: 4.0 micrograms/kg/injection, schedule: Q01DX009 (ip), vehicle: saline): 8 of 8 | survivor count (dose: 4.0 micrograms/kg/injection, schedule: Q03HX016 (ip), vehicle: water): 8 of 8 | survivor count (dose: 4.0 micrograms/kg/injection, schedule: Q06HX024 (ip), vehicle: saline): 7 of 8 | survivor count (dose: 8.0 micrograms/kg/injection, schedule: Q01DX009 (ip), vehicle: clinical formulation): 8 of 8 | survivor count (dose: 8.0 micrograms/kg/injection, schedule: Q01DX009 (ip), vehicle: saline): 8 of 8 | survivor count (dose: 8.0 micrograms/kg/injection, schedule: Q01DX009 (ip), vehicle: water): 8 of 8 | survivor count (dose: 8.0 micrograms/kg/injection, schedule: Q03HX008 (ip), vehicle: water): 8 of 8 | survivor count (dose: 8.0 micrograms/kg/injection, schedule: Q03HX016 (ip), vehicle: water): 8 of 8 | survivor count (dose: 8.0 micrograms/kg/injection, schedule: Q06HX024 (ip), vehicle: saline): 8 of 8 | survivor count (dose: 16.0 micrograms/kg/injection, schedule: Q01DX009 (ip), vehicle: water): 8 of 8 | survivor count (dose: 16.0 micrograms/kg/injection, schedule: Q03HX008 (ip), vehicle: water): 8 of 8 | survivor count (dose: 16.0 micrograms/kg/injection, schedule: Q03HX016 (ip), vehicle: water): 8 of 8 | survivor count (dose: 16.0 micrograms/kg/injection, schedule: Q06HX024 (ip), vehicle: saline): 8 of 8 | survivor count (dose: 17.0 micrograms/kg/injection, schedule: Q01DX009 (ip), vehicle: clinical formulation): 8 of 8 | survivor count (dose: 17.0 micrograms/kg/injection, schedule: Q01DX009 (ip), vehicle: saline): 8 of 8 | survivor count (dose: 31.0 micrograms/kg/injection, schedule: Q01DX009 (ip), vehicle: water): 8 of 8 | survivor count (dose: 31.0 micrograms/kg/injection, schedule: Q03HX008 (ip), vehicle: water): 8 of 8 | survivor count (dose: 31.0 micrograms/kg/injection, schedule: Q03HX016 (ip), vehicle: water): 8 of 8 | survivor count (dose: 32.0 micrograms/kg/injection, schedule: Q01DX009 (ip), vehicle: clinical formulation): 8 of 8 | survivor count (dose: 32.0 micrograms/kg/injection, schedule: Q01DX009 (ip), vehicle: saline): 8 of 8 | survivor count (dose: 32.0 micrograms/kg/injection, schedule: Q06HX024 (ip), vehicle: saline): 8 of 8 | survivor count (dose: 62.0 micrograms/kg/injection, schedule: Q01DX009 (ip), vehicle: water): 8 of 8 | survivor count (dose: 62.0 micrograms/kg/injection, schedule: Q03HX016 (ip), vehicle: water): 5 of 8 | survivor count (dose: 64.0 micrograms/kg/injection, schedule: Q01DX001 (ip), vehicle: clinical formulation): 8 of 8 | survivor count (dose: 64.0 micrograms/kg/injection, schedule: Q01DX001 (ip), vehicle: saline): 8 of 8 | survivor count (dose: 64.0 micrograms/kg/injection, schedule: Q01DX009 (ip), vehicle: clinical formulation): 8 of 8 | survivor count (dose: 64.0 micrograms/kg/injection, schedule: Q01DX009 (ip), vehicle: saline): 8 of 8 | survivor count (dose: 64.0 micrograms/kg/injection, schedule: Q06HX024 (ip), vehicle: saline): 6 of 8 | survivor count (dose: 125.0 micrograms/kg/injection, schedule: Q01DX009 (ip), vehicle: water): 8 of 8 | survivor count (dose: 125.0 micrograms/kg/injection, schedule: Q03HX008 (ip), vehicle: water): 0 of 8 | survivor count (dose: 125.0 micrograms/kg/injection, schedule: Q03HX016 (ip), vehicle: water): 0 of 8 | survivor count (dose: 128.0 micrograms/kg/injection, schedule: Q01DX001 (ip), vehicle: clinical formulation): 8 of 8 | survivor count (dose: 128.0 micrograms/kg/injection, schedule: Q01DX001 (ip), vehicle: saline): 8 of 8 | survivor count (dose: 128.0 micrograms/kg/injection, schedule: Q01DX009 (ip), vehicle: clinical formulation): 8 of 8 | survivor count (dose: 128.0 micrograms/kg/injection, schedule: Q01DX009 (ip), vehicle: saline): 6 of 8 | survivor count (dose: 250.0 micrograms/kg/injection, schedule: Q01DX009 (ip), vehicle: water): 3 of 8 | survivor count (dose: 256.0 micrograms/kg/injection, schedule: Q01DX001 (ip), vehicle: clinical formulation): 8 of 8 | survivor count (dose: 256.0 micrograms/kg/injection, schedule: Q01DX001 (ip), vehicle: saline): 8 of 8 | survivor count (dose: 512.0 micrograms/kg/injection, schedule: Q01DX001 (ip), vehicle: clinical formulation): 8 of 8 | survivor count (dose: 512.0 micrograms/kg/injection, schedule: Q01DX001 (ip), vehicle: saline): 8 of 8

O=C(O)O
survivor count (dose: 400.0 mg/kg/injection, schedule: Q06HX036 (ip), vehicle: water): 10 of 10 | survivor count (dose: 800.0 mg/kg/injection, schedule: Q06HX036 (ip), vehicle: water): 9 of 10 | survivor count (dose: 1600.0 mg/kg/injection, schedule: Q06HX036 (ip), vehicle: water): 8 of 10
